One sequence from publication PMC8960804 can be followed below.

The exact form of at least one protein or probe is not confirmed.

This data set has as its target RexT (Nostoc (Anabaena) sp. PCC 7120) (UniProt A0ACD6B957). The experiment in a line: fluorescence anisotropy. Particulars: 1 mM DTT, 20 mM HEPES pH 8.0, 100 mM NaCl, 10 mM MgCl2, 10% glycerol, FA 100 nM probe, room temperature, 15 min, recombinant protein. Background: In fluorescence polarisation assays a small probe gives low polarisation when free and higher when bound to something large.

Consider “TTATTATTCGATAATATCGAATAAACGAATTAAGG (double strand) [FA duplex probe]”, for which the Kd is 1080 nM. Also, the Kd (2.5 eq. CdCl2) came out at 1200 nM.

Usually Kd stands for the constant that tells how readily two partners part at equilibrium.
